Measurements: US10414763B2 (CANCER RESEARCH TECHNOLOGY LIMITED, priority 2014, dated 2019)
The match of structure and compound is tentative.

By UniProt entry, the sequences of proteins in these tests, tags left out.
UniProt P41743, whole entry: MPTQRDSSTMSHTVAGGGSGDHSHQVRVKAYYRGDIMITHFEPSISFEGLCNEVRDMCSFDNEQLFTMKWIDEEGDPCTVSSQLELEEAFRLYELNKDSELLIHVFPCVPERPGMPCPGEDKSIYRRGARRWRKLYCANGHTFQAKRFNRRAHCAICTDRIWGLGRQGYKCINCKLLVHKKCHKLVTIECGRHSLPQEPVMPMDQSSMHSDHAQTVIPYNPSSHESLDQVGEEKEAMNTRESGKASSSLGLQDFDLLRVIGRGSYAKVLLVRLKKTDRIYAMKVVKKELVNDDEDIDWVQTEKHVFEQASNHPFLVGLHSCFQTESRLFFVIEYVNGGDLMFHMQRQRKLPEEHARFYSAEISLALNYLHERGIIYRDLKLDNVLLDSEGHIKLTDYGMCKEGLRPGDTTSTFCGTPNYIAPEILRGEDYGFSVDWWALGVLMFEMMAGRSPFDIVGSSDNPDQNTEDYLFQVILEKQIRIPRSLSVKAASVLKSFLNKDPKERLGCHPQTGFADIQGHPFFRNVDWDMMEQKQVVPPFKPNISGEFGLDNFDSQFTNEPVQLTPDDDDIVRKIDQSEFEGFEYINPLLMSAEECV

Molecular target: full-length human PKCι (Homo sapiens, UniProt P41743)
Test: PKCι IC50 IMAP fluorescence polarisation assay, full-length enzyme, 150 μM ATP
Conditions: read-out: IC50 in IMAP assay against full length PKCi at 150 μM ATP
Source text: Assays are based on the ability of PKCι to phosphorylate a commercially available peptide substrate in vitro. The peptide substrate is FAM-PKCε pseudopeptide derived peptide, and comprises the amino acid sequence 5FAM-ERMRPRKRQGSVRRRV-NH2. Recombinant, full-length human PKCι expressed in Sf21 insect cells is also commercially available. Recombinant, kinase-domain human PKCι is expressed and purified in-house.
The procedure below explains how dose response curves for inhibitors of PKCι are obtained. The screen described is for a 384 well format but the assay can be adapted to 1536 or other formats as required.
Compounds to be tested are dissolved in 100% DMSO. […]
On the day of the screen PKCι/substrate working solution, and ATP working solution, are prepared in buffer containing 20 mM tris-HCl pH7.5, 10 mM MgCl2, 0.01% Triton X100, 250 μM EGTA and 1 mM DTT. […] IMAP development reagent consists of 0.25% (v/v) IMAP progressive binding reagent, 17% (v/v) IMAP progressive binding buffer A and 3% (v/v) IMAP progressive binding buffer B. The plates are then incubated for 2 hours at room temperature before being read using an appropriate plate reader, for example a Molecular Devices HT Analyst or a BMG Pherastar. Plates are read using a fluorescence polarisation protocol with excitation at 485 nm and emission at 530 nm, and dichroic mirror at 505 nm. […]

Structure (SMILES) | IC50 [nM]
CN(c1nc(-c2ccnc(Nc3nc(F)ccc3F)c2)nc2cncc(C3CC3)c12)C1CCNCC1(C)C (centres unmarked) | < 100
CN(c1nc(-c2ccnc(Nc3nc(F)ccc3F)c2)nc2cncc(C3CCC3)c12)C1CCNCC1(C)C (centres unmarked) | < 100
